# Reference: the supplement of paper PMC10849652
# Sequences of proteins named here, by UniProt entry; tags and fusion partners are left off. A change or cut given only in a name is not applied to a line headed by its entry.
# UniProt Q9NZR1: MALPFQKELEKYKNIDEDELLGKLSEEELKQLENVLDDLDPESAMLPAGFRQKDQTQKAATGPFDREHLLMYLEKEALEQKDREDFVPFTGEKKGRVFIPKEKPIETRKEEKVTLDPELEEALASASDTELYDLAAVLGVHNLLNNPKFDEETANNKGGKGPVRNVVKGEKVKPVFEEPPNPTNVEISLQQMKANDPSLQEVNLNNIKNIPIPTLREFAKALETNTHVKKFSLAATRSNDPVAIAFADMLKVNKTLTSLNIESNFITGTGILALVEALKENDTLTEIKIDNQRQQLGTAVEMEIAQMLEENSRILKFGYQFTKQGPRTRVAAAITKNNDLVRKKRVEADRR
# UniProt Q9H496: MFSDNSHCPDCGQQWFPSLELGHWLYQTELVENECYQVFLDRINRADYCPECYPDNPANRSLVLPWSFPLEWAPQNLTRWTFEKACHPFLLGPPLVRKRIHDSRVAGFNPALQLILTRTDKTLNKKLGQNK
# UniProt P42167: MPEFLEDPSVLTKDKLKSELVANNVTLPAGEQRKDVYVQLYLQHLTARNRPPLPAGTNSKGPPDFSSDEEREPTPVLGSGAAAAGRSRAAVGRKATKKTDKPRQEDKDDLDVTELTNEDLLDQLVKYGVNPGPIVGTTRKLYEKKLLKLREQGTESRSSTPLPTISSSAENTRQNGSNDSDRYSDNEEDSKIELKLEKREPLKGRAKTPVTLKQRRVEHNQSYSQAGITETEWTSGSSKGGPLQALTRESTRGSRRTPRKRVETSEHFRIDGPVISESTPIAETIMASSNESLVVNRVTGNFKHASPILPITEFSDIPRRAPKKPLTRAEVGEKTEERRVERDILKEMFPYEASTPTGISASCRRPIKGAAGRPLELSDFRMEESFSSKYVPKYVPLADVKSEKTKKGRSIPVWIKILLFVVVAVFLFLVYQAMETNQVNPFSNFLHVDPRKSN
# UniProt Q9BUB7: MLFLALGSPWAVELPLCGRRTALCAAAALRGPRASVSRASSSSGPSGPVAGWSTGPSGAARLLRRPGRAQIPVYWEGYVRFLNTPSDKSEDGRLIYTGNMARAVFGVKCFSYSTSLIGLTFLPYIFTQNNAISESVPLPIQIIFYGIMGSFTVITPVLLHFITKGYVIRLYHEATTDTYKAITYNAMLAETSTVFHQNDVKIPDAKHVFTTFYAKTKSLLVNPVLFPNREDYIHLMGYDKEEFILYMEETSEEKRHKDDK
# UniProt Q5JTV8: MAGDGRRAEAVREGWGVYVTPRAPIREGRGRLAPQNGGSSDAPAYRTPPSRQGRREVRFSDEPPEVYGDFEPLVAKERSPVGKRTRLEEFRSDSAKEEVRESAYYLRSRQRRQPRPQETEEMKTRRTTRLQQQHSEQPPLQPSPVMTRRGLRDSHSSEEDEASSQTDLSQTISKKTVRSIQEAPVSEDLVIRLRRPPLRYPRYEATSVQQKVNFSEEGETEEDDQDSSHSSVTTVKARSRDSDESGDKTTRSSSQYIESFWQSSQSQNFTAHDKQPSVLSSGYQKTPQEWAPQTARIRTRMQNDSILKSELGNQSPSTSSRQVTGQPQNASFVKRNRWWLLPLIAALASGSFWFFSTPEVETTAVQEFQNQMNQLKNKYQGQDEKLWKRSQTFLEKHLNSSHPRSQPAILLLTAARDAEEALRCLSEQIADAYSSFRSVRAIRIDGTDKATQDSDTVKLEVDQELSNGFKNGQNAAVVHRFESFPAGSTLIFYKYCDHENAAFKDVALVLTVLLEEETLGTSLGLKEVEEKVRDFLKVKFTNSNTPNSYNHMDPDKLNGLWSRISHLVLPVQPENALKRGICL
# UniProt Q969M1: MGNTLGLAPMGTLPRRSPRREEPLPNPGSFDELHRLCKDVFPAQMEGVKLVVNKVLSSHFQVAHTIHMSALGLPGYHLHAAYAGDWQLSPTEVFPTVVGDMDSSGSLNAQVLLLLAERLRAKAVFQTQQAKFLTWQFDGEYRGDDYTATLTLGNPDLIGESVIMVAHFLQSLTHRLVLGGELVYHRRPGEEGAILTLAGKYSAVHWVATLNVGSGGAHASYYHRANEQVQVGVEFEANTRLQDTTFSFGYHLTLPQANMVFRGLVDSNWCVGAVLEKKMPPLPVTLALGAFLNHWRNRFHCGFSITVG
# UniProt P28908: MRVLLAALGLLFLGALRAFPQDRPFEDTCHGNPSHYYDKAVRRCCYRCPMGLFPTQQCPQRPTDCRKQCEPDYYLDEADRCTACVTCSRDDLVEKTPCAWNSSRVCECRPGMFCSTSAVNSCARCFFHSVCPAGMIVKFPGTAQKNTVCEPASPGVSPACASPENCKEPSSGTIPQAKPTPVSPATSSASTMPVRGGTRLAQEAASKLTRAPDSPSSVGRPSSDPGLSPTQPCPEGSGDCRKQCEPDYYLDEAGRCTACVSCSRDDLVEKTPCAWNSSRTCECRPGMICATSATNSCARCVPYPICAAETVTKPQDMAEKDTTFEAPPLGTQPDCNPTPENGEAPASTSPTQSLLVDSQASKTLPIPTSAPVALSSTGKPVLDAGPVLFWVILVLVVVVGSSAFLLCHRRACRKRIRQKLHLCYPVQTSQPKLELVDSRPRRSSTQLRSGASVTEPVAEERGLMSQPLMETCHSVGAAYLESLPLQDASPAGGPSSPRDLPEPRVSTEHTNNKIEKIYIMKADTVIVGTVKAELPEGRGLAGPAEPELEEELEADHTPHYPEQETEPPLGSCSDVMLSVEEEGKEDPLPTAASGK
# UniProt Q13472: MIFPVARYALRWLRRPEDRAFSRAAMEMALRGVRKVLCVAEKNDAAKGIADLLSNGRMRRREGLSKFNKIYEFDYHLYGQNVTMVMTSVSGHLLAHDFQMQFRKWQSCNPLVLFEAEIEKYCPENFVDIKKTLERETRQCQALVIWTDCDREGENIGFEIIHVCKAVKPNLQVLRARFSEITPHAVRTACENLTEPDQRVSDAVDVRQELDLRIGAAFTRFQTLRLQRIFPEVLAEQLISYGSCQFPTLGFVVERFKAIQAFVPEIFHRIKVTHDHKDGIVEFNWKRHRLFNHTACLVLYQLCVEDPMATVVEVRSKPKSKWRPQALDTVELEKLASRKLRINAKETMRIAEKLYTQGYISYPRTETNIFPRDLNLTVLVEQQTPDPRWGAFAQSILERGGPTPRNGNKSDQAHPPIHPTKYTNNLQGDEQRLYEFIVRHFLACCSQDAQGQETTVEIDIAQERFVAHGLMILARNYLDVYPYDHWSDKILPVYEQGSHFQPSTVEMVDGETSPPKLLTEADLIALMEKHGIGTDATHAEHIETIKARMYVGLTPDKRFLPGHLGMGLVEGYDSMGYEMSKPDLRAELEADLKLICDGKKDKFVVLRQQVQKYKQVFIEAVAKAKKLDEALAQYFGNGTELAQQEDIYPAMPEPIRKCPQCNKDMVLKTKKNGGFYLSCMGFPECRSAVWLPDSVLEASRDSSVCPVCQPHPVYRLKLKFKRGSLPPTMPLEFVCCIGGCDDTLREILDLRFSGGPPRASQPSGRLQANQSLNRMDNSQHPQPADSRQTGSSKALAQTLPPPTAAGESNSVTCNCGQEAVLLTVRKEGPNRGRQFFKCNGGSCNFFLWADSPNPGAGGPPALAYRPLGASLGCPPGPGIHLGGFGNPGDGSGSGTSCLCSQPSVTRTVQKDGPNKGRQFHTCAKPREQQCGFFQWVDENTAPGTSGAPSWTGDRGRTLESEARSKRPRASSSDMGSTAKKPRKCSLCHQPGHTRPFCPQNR
# UniProt Q15785: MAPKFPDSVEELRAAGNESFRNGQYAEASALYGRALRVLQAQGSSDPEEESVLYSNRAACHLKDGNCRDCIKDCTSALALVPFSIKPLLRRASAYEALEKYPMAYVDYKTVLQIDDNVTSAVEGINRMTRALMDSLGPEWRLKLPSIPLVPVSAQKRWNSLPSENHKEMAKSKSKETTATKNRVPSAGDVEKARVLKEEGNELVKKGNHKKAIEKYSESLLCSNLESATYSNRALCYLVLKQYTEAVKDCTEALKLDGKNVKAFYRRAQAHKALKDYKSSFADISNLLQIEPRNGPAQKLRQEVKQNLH
# UniProt Q15388, whole entry, looked up: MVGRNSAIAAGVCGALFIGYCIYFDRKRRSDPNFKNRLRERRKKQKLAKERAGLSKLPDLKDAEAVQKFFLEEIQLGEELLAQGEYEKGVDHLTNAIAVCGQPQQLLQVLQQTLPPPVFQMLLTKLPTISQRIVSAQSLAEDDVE
# UniProt Q5JU69: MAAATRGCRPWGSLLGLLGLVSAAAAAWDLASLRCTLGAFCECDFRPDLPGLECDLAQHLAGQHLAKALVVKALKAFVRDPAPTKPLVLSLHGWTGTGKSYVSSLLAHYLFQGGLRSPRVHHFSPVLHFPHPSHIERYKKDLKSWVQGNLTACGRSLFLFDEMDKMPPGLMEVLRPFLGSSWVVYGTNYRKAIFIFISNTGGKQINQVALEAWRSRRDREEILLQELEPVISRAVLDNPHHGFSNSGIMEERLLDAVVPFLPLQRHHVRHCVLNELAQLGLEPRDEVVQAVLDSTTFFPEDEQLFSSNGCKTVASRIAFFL
# UniProt Q12888: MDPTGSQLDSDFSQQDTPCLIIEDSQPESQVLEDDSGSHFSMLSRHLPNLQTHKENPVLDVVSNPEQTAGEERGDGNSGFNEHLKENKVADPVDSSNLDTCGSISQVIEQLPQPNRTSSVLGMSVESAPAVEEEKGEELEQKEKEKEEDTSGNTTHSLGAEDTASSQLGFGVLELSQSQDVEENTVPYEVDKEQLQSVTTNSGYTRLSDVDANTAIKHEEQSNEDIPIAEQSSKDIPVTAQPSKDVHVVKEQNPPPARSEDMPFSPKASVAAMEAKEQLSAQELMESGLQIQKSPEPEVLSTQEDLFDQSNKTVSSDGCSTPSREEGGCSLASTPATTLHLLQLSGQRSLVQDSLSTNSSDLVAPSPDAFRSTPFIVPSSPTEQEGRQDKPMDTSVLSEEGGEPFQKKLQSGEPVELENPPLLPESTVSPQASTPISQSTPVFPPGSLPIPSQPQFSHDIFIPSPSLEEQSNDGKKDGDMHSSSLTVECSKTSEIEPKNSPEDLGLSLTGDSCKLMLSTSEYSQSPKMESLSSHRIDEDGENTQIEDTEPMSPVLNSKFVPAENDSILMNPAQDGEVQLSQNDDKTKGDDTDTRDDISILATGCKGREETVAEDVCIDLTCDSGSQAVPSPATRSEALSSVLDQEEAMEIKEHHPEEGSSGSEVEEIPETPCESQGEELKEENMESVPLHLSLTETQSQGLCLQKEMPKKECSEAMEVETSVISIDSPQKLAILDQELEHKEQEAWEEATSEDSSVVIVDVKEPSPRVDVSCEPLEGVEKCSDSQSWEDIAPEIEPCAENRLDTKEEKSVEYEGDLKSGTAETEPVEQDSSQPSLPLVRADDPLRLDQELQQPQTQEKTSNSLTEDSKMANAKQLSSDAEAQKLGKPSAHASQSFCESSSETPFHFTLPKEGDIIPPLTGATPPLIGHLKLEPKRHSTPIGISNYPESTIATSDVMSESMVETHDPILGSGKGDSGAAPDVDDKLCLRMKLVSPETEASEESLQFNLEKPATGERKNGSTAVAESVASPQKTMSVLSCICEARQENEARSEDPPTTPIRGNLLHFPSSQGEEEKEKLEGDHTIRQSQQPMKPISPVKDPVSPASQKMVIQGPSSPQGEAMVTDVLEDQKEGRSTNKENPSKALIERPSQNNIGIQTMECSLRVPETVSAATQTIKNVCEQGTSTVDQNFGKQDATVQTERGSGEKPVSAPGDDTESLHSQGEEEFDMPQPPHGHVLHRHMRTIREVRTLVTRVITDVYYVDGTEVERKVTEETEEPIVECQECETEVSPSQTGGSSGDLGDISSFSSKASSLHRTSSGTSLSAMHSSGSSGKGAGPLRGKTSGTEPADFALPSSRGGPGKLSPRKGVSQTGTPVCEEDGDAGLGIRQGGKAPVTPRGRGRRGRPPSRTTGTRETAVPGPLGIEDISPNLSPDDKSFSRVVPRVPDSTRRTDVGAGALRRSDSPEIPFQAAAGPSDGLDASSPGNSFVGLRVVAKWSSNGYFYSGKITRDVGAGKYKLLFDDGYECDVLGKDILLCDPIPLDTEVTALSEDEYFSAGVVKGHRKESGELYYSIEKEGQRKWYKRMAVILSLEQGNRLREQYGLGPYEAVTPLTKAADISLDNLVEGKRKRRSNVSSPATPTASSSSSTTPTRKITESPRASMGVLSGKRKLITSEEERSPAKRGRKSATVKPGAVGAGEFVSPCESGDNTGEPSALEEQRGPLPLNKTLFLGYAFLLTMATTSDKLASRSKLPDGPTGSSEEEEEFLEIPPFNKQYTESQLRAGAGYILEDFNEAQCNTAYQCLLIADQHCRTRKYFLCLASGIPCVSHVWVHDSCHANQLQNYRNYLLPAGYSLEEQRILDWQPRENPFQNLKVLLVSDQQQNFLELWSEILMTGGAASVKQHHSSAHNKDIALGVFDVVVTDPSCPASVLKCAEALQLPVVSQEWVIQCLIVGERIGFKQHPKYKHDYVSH
# The list shows a part of the results.
# Tests used:
# Assay in all cases: log2 fold change, soluble protein after heating vs DMSO (PISA); higher = thermal stabilisation; K562 lysate, 10 uM; active = over 0.2 and 3.5 SD of the protein, either way, in both replicates (recomputed)
# vemurafenib = compound: CCCS(=O)(=O)Nc1ccc(F)c(C(=O)c2c[nH]c3ncc(-c4ccc(Cl)cc4)cc23)c1F [vemurafenib]
# Outline: (§1)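 Quantification was by TMTpro 16plex LC-MS/MS with equalised channel sums, applied to the supernatant after 21,000xg for 90 min. Samples were crude K562 extract at 1 mg/mL protein in PBS pH 7.4 with 1 mM MgCl2, treated with 10 μM compound for 30 min, heated for 3 min across 48°C-58°C, pooled and brought to 0.5% NP-40 at 4°C. Values are log-two fold changes in thermal stability relative to solvent controls, from duplicates.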
# [1] = compound: CCCS(=O)(=O)Nc1ccc(F)c(C(=O)c2c[nH]c3ncc(Cl)cc23)c1F
# Outline: as §1
# barasertib = compound: CCN(CCCOc1ccc2c(Nc3cc(CC(=O)Nc4cccc(F)c4)[nH]n3)ncnc2c1)CCOP(=O)(O)O [barasertib]
# Outline: as §1
# [2] = compound: CC[C@@H]1C(=O)N(C)c2cnc(Nc3ccc(C(=O)NC4CCN(C)CC4)cc3OC)nc2N1C1CCCC1
# Outline: as §1
# volasertib = compound: CC[C@@H]1C(=O)N(C)c2cnc(Nc3ccc(C(=O)N[C@H]4CC[C@H](N5CCN(CC6CC6)CC5)CC4)cc3OC)nc2N1C(C)C [volasertib]
# Outline: as §1
# [3] = compound: CCn1c(C(=O)N(C2CC2)C2CC2)cc2c3c(ncn3C)c(Nc3cc(C)n(C)n3)nc21
# Outline: as §1
# [4] = compound: CCn1cc(-c2ccnc3[nH]c(-c4cccc(CN(C)C)c4)cc23)c(-c2ccc(NC(=O)N(C)C)cc2)n1
# Outline: as §1
# [5] = compound: CN1CCC(CNc2ccc3ncc(-c4cccc(OC(F)(F)F)c4)n3n2)CC1
# Outline: as §1
# saracatinib = compound: CN1CCN(CCOc2cc(OC3CCOCC3)c3c(Nc4c(Cl)ccc5c4OCO5)ncnc3c2)CC1 [saracatinib]
# Outline: as §1
# sotrastaurin = compound: CN1CCN(c2nc(C3=C(c4c[nH]c5ccccc45)C(=O)NC3=O)c3ccccc3n2)CC1 [sotrastaurin]
# Outline: as §1
# alvocidib = compound: CN1CC[C@H](c2c(O)cc(O)c3c(=O)cc(-c4ccccc4Cl)oc23)[C@H](O)C1 [alvocidib]
# Outline: as §1
# Tubastatin A = compound: CN1CCc2c(c3ccccc3n2Cc2ccc(C(=O)NO)cc2)C1 [Tubastatin A]
# Outline: as §1
# [6] = compound: CNC(=O)C1=CC=CC=C1NC2=NC(=NC=C2Cl)NC3=C(C=C(C=C3)N4CCOCC4)OC
# Outline: as §1
# defactinib = compound: CNC(=O)c1ccc(Nc2ncc(C(F)(F)F)c(NCc3nccnc3N(C)S(C)(=O)=O)n2)cc1 [defactinib]
# Outline: as §1
# [7] = compound: CNc1nc(-c2ccc3c(N)n[nH]c3c2)cc(N2C[C@@H](C(=O)NC3CCCCC3)CC[C@H]2C)n1
# Outline: as §1
# encorafenib = compound: COC(=O)N[C@@H](C)CNc1nccc(-c2cn(C(C)C)nc2-c2cc(Cl)cc(NS(C)(=O)=O)c2F)n1 [encorafenib]
# Outline: as §1
# [8] = compound: COC(=O)[C@H](CCSC)NC(=O)C1=C(C=C(C=C1)NC[C@H](CS)N)C2=CC=CC=C2
# Outline: as §1
# alisertib = compound: COc1cc(Nc2ncc3c(n2)-c2ccc(Cl)cc2C(c2c(F)cccc2OC)=NC3)ccc1C(=O)O [alisertib]
# Outline: as §1
# [9] = compound: COc1cc2nc(-c3cc(F)ccc3O)nc(N[C@@H]3CNC[C@H]3C(C)(C)O)c2cc1OC
# Outline: as §1
# gefitinib = compound: COc1cc2ncnc(Nc3ccc(F)c(Cl)c3)c2cc1OCCCN1CCOCC1 [gefitinib]
# Outline: as §1
Target,log2 fold change (vemurafenib),log2 fold change [1],log2 fold change (barasertib),log2 fold change [2],log2 fold change (volasertib),log2 fold change [3],log2 fold change [4],log2 fold change [5],log2 fold change (saracatinib),log2 fold change (sotrastaurin),log2 fold change (alvocidib),log2 fold change (Tubastatin A),log2 fold change [6],log2 fold change (defactinib),log2 fold change [7],log2 fold change (encorafenib),log2 fold change [8],log2 fold change (alisertib),log2 fold change [9],log2 fold change (gefitinib)
TMOD2 (UniProt Q9NZR1),inactive: 0.055,inactive: 0.003,inactive: 0.002,inactive: 0.014,inactive: -0.026,inactive: 0.037,inactive: -0.02,inactive: 0.005,inactive: -0.048,inactive: -0.047,inactive: -0.017,inactive: -0.007,inactive: 0.006,inactive: -0.016,inactive: -0.007,inactive: 0.018,inactive: 0.012,inactive: 0.023,inactive: -0.016,inactive: -0.018
TMEM263 (UniProt Q8WUH6),inactive: 0.086,inactive: -0.024,inactive: 0.19,inactive: 0.133,inactive: 0.023,inactive: 0.097,inactive: -0.034,inactive: -0.242,inactive: 0.109,inactive: -0.003,inactive: 0.013,inactive: 0.266,inactive: 0.116,inactive: 0.213,inactive: -0.013,inactive: 0.285,inactive: 0.154,inactive: 0.202,inactive: 0.398,inactive: 0.222
TOR1AIP2 (UniProt Q9H496),inactive: 0.129,inactive: -0.106,inactive: 0.028,inactive: -0.035,inactive: 0.376,inactive: -0.01,inactive: -0.086,inactive: -0.081,inactive: 0,inactive: -0.011,inactive: 0.02,inactive: -0.09,inactive: 0.119,inactive: -0.041,inactive: -0.359,inactive: 0.041,inactive: 0.071,inactive: 0.019,inactive: 0.155,inactive: -0.015
TNRC6B (UniProt Q9UPQ9),inactive: 0.076,inactive: 0.04,inactive: 0.054,inactive: 0.099,inactive: -0.022,inactive: 0.009,inactive: 0.007,inactive: 0.036,inactive: 0.069,inactive: 0.066,inactive: 0.004,inactive: -0.065,inactive: -0.064,inactive: 0.069,inactive: -0.03,inactive: 0.034,inactive: 0.016,inactive: -0.024,inactive: 0.041,inactive: 0.003
TMPO (UniProt P42167),inactive: 0.063,inactive: 0.008,inactive: 0.003,inactive: -0.01,inactive: 0.013,inactive: 0.022,inactive: 0.033,inactive: -0.033,inactive: 0.014,inactive: -0.014,inactive: -0.007,inactive: 0.018,inactive: -0.034,inactive: -0.015,inactive: 0.029,inactive: 0.035,inactive: -0.163,inactive: -0.026,inactive: -0.025,inactive: 0.027
TMEM70 (UniProt Q9BUB7),inactive: -0.016,inactive: 0.029,inactive: 0.063,inactive: -0.072,inactive: -0.004,inactive: -0.027,active: -0.378,inactive: 0.027,inactive: 0.023,inactive: 0.122,inactive: -0.037,inactive: -0.015,inactive: -0.025,inactive: -0.001,inactive: -0.056,inactive: 0.021,inactive: -0.002,inactive: 0.024,inactive: -0.041,inactive: -0.036
TOR1AIP1 isoform 3 (UniProt Q5JTV8),inactive: 0.013,inactive: 0,inactive: 0.007,inactive: 0.049,inactive: 0.026,inactive: -0.016,inactive: -0.087,inactive: 0.029,inactive: 0.026,inactive: -0.017,inactive: -0.011,inactive: 0.034,inactive: 0.01,inactive: 0.023,inactive: 0.01,inactive: -0.017,inactive: -0.051,inactive: -0.02,inactive: -0.004,inactive: 0.043
TOMM40L (UniProt Q969M1),inactive: 0.03,inactive: 0.024,inactive: 0.068,inactive: 0.033,inactive: -0.006,inactive: 0.236,inactive: 0,inactive: 0.091,inactive: 0.001,inactive: -0.004,inactive: -0.041,inactive: 0.107,inactive: -0.007,inactive: -0.009,inactive: 0.139,inactive: -0.008,inactive: 0.07,inactive: 0,inactive: 0.024,inactive: 0.035
TNFRSF8 (UniProt P28908),inactive: -0.036,inactive: -0.033,inactive: 0.062,inactive: 0.052,inactive: 0.038,inactive: -0.003,inactive: -0.051,inactive: 0.042,inactive: -0.019,inactive: 0.022,inactive: -0.069,inactive: 0.043,inactive: 0.009,inactive: -0.028,inactive: -0.005,inactive: 0.037,inactive: -0.025,inactive: -0.005,inactive: -0.006,inactive: -0.004
TOLLIP (UniProt Q9H0E2),inactive: 0.025,inactive: 0,inactive: 0.004,inactive: 0.047,inactive: -0.011,inactive: 0.045,inactive: -0.064,inactive: 0.025,inactive: 0,inactive: -0.099,inactive: -0.013,inactive: -0.007,inactive: -0.016,inactive: 0.005,inactive: 0.052,inactive: 0.046,inactive: 0.02,inactive: -0.021,inactive: 0.008,inactive: 0.067
TOP3A (UniProt Q13472),inactive: 0.02,inactive: -0.016,inactive: 0.055,inactive: 0.164,inactive: -0.083,inactive: 0.06,inactive: -0.007,inactive: 0.086,inactive: -0.051,inactive: 0.069,inactive: 0.082,inactive: -0.1,inactive: -0.071,inactive: -0.048,inactive: 0.009,inactive: 0.008,inactive: 0.091,inactive: -0.039,inactive: -0.118,inactive: -0.005
TOMM34 (UniProt Q15785),inactive: 0.038,inactive: 0.021,inactive: 0.014,inactive: 0.009,inactive: -0.07,inactive: 0.019,inactive: -0.038,inactive: -0.018,inactive: -0.005,inactive: 0.021,inactive: 0.021,inactive: -0.105,inactive: 0.04,inactive: 0.018,inactive: 0.038,inactive: 0.027,inactive: -0.004,inactive: 0.021,inactive: -0.001,inactive: -0.022
TMEM43 (UniProt Q9BTV4),inactive: 0.026,inactive: 0.039,inactive: 0.024,inactive: 0.018,inactive: 0.008,inactive: -0.046,inactive: -0.061,inactive: 0.078,inactive: 0.042,inactive: 0.021,inactive: -0.013,inactive: 0.016,inactive: -0.002,inactive: -0.003,inactive: -0.034,inactive: 0.034,inactive: -0.009,inactive: -0.007,inactive: -0.031,inactive: 0.003
TOMM20 (UniProt Q15388),inactive: -0.009,inactive: 0.012,inactive: -0.017,inactive: -0.018,inactive: 0.044,inactive: -0.022,inactive: -0.024,inactive: -0.066,inactive: -0.029,inactive: -0.021,inactive: 0.049,inactive: 0.052,inactive: 0.001,inactive: 0.011,inactive: 0,inactive: -0.033,inactive: 0.082,inactive: -0.016,inactive: -0.081,inactive: 0.047
TOR2A (UniProt Q5JU69),inactive: 0.038,inactive: 0.006,inactive: -0.044,inactive: 0.023,inactive: 0.023,inactive: -0.035,inactive: 0.122,inactive: -0.089,inactive: 0.032,inactive: 0.067,inactive: -0.087,inactive: -0.034,inactive: 0.011,inactive: 0.011,inactive: 0.081,inactive: -0.055,inactive: -0.072,inactive: -0.05,inactive: 0.051,inactive: 0.088
TP53BP1 isoform 2 (UniProt Q12888),inactive: -0.019,inactive: 0.02,inactive: 0.009,inactive: 0.015,inactive: 0.012,inactive: -0.021,inactive: -0.031,inactive: 0.033,inactive: 0.022,inactive: 0.023,inactive: -0.002,inactive: -0.001,inactive: -0.002,inactive: -0.006,inactive: -0.006,inactive: 0.017,inactive: -0.011,inactive: -0.017,inactive: 0.021,inactive: 0.028

# Retrieved one by one from the list above (2):
Target,log2 fold change (vemurafenib),log2 fold change [1],log2 fold change (barasertib),log2 fold change [2],log2 fold change (volasertib),log2 fold change [3],log2 fold change [4],log2 fold change [5],log2 fold change (saracatinib),log2 fold change (sotrastaurin),log2 fold change (alvocidib),log2 fold change (Tubastatin A),log2 fold change [6],log2 fold change (defactinib),log2 fold change [7],log2 fold change (encorafenib),log2 fold change [8],log2 fold change (alisertib),log2 fold change [9],log2 fold change (gefitinib)
TMEM43 (UniProt Q9BTV4),inactive: 0.026,inactive: 0.039,inactive: 0.024,inactive: 0.018,inactive: 0.008,inactive: -0.046,inactive: -0.061,inactive: 0.078,inactive: 0.042,inactive: 0.021,inactive: -0.013,inactive: 0.016,inactive: -0.002,inactive: -0.003,inactive: -0.034,inactive: 0.034,inactive: -0.009,inactive: -0.007,inactive: -0.031,inactive: 0.003
TOR1AIP1 isoform 3 (UniProt Q5JTV8),inactive: 0.013,inactive: 0,inactive: 0.007,inactive: 0.049,inactive: 0.026,inactive: -0.016,inactive: -0.087,inactive: 0.029,inactive: 0.026,inactive: -0.017,inactive: -0.011,inactive: 0.034,inactive: 0.01,inactive: 0.023,inactive: 0.01,inactive: -0.017,inactive: -0.051,inactive: -0.02,inactive: -0.004,inactive: 0.043
